From ChEMBL document CHEMBL3988442, “University of Dundee, Small-Polar-MMV Screening Library” (2021).

Amino acid sequences for entries named in this document (tags omitted).
UniProt E9BF75, entry or part of it: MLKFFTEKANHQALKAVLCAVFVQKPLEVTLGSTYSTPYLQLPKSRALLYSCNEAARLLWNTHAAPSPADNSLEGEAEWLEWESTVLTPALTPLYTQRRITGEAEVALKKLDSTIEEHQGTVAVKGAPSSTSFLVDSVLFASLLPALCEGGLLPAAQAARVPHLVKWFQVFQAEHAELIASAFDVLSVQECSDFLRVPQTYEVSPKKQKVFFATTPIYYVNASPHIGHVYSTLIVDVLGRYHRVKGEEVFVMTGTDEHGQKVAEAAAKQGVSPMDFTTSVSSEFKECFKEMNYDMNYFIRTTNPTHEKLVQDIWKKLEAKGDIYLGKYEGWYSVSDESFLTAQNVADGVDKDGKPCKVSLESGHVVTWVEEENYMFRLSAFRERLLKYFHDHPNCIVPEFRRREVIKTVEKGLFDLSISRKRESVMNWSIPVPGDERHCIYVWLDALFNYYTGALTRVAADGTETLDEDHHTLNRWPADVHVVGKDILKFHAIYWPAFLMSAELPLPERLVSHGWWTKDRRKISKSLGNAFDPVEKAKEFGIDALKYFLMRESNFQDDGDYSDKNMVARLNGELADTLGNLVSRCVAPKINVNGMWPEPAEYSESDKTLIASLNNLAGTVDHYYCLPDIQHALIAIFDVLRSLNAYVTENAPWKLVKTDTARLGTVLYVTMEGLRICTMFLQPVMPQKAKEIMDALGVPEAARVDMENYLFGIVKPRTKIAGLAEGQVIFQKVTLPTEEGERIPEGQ

All values are in %.
How 0% and 100% were set is not recorded. Most values in the screen are low, and negative values occur.
This is an unselected part of the compounds tested.

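Methionyl-tRNA synthetase (putative), Leishmania donovani (UniProt E9BF75). Primary screen of methionyl-tRNA synthetase; the read-out is not stated. The test concentration is not given. The values are filed as inhibition. About 68,000 compounds were tested under these conditions; 0.035% (about 24) showed 50% or more at least once.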

{"compound": "CN1CCCC(c2cccc(-c3ccccc3F)n2)C1", "stereo": "stereo not shown", "inhibition": 17.44}
{"compound": "CCc1nc(C(=O)N2CCN(CCc3ccc(OC)cc3)CC2)c[nH]1", "inhibition": 15.33}
{"compound": "Cc1nc2sccn2c1CNc1cc(C(=O)O)ccc1F", "inhibition": 3.064}
{"compound": "CN(C)C(=O)N1CCC2(CC1)CCN(c1ncccn1)C2", "inhibition": 11.68}
{"compound": "CN1CCN(C(=O)N2CCCC(c3nccn3CC3CCC3)C2)CC1", "stereo": "stereo not shown", "inhibition": 14.5}
{"compound": "CCCc1nnnn1CC(=O)NCc1cccc(C)c1", "inhibition": 20.72}
{"compound": "O=C(N[C@@H]1CN[C@@H]2CCCO[C@@H]21)c1cscn1", "inhibition": 3.75}
{"compound": "Cc1nc(NC(=O)c2c(-n3cnnn3)sc3c2CCCC3)sc1C", "inhibition": 17.54}
{"compound": "CCc1nc(CN2CCN(C(=O)c3cncnc3CC)CC2)cs1", "inhibition": 18.73}
{"compound": "O=C(c1cc2c(s1)CCC2)N1CCC(c2cnccn2)CC1", "inhibition": 7.595}
{"compound": "CN(Cc1ccc(OCC(=O)N2CCOCC2)cc1)S(C)(=O)=O", "inhibition": 13.07}
{"compound": "NC(=O)c1cc(-c2cccc(C(=O)O)c2)cs1", "inhibition": 6.143}
{"compound": "Cc1nn(C)c(C)c1C1COCCN1C(=O)c1cc(F)ccc1F", "stereo": "stereo not shown", "inhibition": 15.91}
{"compound": "N#Cc1ccc(NCC(=O)Nc2ccn(Cc3cccnc3)n2)cc1", "inhibition": 11.56}
{"compound": "CN1CCN(S(=O)(=O)N2CCCCC2CCc2ccc(O)cc2)CC1", "stereo": "stereo not shown", "inhibition": 8.602}
{"compound": "c1ccc(CO[C@@H]2CC[C@H]3[C@H]2OCCN3Cc2ccsc2)nc1", "inhibition": 9.375}
{"compound": "Cc1cc(-c2ccc(=O)n(C3CCN(S(C)(=O)=O)CC3)n2)c(C)o1", "inhibition": 5.774}
{"compound": "O=C1CC2(CCCNC2)C(=O)N1Cc1cccc(Cl)c1", "stereo": "stereo not shown", "inhibition": 7.283}
{"compound": "CSCC[C@H](NC(=O)N1CCC(Cc2ccccc2)CC1)C(=O)O", "inhibition": 3.399}
{"compound": "CC(C)NC(=O)c1cc2c(s1)CCN2c1ncccn1", "inhibition": 12.47}
{"compound": "O=C(c1cccnc1-n1cncn1)N1CCN(C2CCCC2)CC1", "inhibition": 11.96}
{"compound": "N#Cc1ccccc1OCCN1CCC(N2CCNC2=O)CC1", "inhibition": 13.65}
{"compound": "CC(C)N(C)CCNC(=O)N1CCN(Cc2ccon2)CC1", "inhibition": 9.549}
{"compound": "Cc1noc(C)c1C(=O)NCCN1CCOCC1", "inhibition": 10.42}
{"compound": "CCc1cc(NC2CCN(S(C)(=O)=O)CC2)n2nc(C)c(C)c2n1", "inhibition": 4.425}
{"compound": "Cc1noc(C)c1-c1nc(C2CCCN(C(=O)C(C)C)C2)ccc1CO", "stereo": "stereo not shown", "inhibition": 11.64}
{"compound": "COCC(=O)NCc1cc2n(n1)CCCN(CCCC1CCCC1)C2", "inhibition": 7.317}
{"compound": "CC(=O)N1C[C@@H]2CC[C@H](C1)N(Cc1ccc(Cn3cccn3)cc1)C2", "inhibition": 11.62}
{"compound": "COC[C@@]12CCO[C@@H]1CCN(C(=O)COc1ccc(C)cc1)C2", "inhibition": 1.25}
{"compound": "Cc1ccc(C(=O)N2CCCC(CNS(C)(=O)=O)C2)o1", "stereo": "stereo not shown", "inhibition": 19.33}
{"compound": "COCC1CCN(S(=O)(=O)c2ccc(C(=O)NCC(F)F)cc2)C1", "stereo": "stereo not shown", "inhibition": 9.375}
{"compound": "CN(C)C(=O)CNC(CC(F)(F)F)c1ccc(Cl)cc1", "stereo": "stereo not shown", "inhibition": 2.375}
{"compound": "Cc1noc(C(C)N2CCN(CC(=O)N3CCCC3)CC2)n1", "stereo": "stereo not shown", "inhibition": 17.46}
{"compound": "CC(=O)Nc1nc(C(=O)NC(C)c2cccnc2)cs1", "stereo": "stereo not shown", "inhibition": 11.34}
{"compound": "Cc1ccc2oc(CN3CCC(C(=O)O)(n4ccnc4)CC3)c(C)c2c1", "inhibition": 7.283}
{"compound": "CCNC(=O)[C@@H]1CCCN1[C@@H](C(=O)NC)c1ccccc1", "inhibition": 12.64}
{"compound": "COc1ccc(NC(=O)c2nc(C)sc2C)cn1", "inhibition": 7.507}
{"compound": "CC(Cn1cncn1)Nc1ccc(-c2nccn2C)nn1", "stereo": "stereo not shown", "inhibition": 20.21}
{"compound": "Cc1cnn(CC(C)NCc2cc(=O)n3ccccc3n2)c1", "stereo": "stereo not shown", "inhibition": 7.796}
{"compound": "CNC(=O)C(NC(=O)c1ccn(C)c(=O)c1)c1ccccc1", "stereo": "stereo not shown", "inhibition": 5.222}
{"compound": "CC(c1nnc(-c2cccs2)o1)N1CCc2cncnc2C1", "stereo": "stereo not shown", "inhibition": -0.7752}
{"compound": "CN(C)C(=O)N[C@@H]1CN(Cc2ccc3c(c2)OCO3)[C@@H]2CCCO[C@@H]21", "inhibition": 12.97}
{"compound": "CN(C)c1cc2c(nn1)CCN(C(=O)C1Cc3ccccc3S1)C2", "stereo": "stereo not shown", "inhibition": 11.74}
{"compound": "CCc1ncc2c(n1)CN(CC(=O)Nc1cc(C)on1)CC2", "inhibition": -1.445}
{"compound": "O=C(C1CC=CC1)N1Cc2nccn2CC(CN2CCCC2)C1", "stereo": "stereo not shown", "inhibition": 16.83}

3 of the entries, repeated:

compound	inhibition
CN1CCN(S(=O)(=O)N2CCCCC2CCc2ccc(O)cc2)CC1 (stereo not shown)	8.602%
CNC(=O)C(NC(=O)c1ccn(C)c(=O)c1)c1ccccc1 (stereo not shown)	5.222%
O=C1CC2(CCCNC2)C(=O)N1Cc1cccc(Cl)c1 (stereo not shown)	7.283%